Measurements taken from article PMC9818470.
No constants are given. Whether binding was seen depends on the method and setting. In cells and extracts the contact can be indirect.

The chains behind the UniProt entries cited, without tags or fusion partners. Where a name states a change or a piece, a line headed by the entry shows the natural chain unless it says otherwise.
UniProt Q8N163: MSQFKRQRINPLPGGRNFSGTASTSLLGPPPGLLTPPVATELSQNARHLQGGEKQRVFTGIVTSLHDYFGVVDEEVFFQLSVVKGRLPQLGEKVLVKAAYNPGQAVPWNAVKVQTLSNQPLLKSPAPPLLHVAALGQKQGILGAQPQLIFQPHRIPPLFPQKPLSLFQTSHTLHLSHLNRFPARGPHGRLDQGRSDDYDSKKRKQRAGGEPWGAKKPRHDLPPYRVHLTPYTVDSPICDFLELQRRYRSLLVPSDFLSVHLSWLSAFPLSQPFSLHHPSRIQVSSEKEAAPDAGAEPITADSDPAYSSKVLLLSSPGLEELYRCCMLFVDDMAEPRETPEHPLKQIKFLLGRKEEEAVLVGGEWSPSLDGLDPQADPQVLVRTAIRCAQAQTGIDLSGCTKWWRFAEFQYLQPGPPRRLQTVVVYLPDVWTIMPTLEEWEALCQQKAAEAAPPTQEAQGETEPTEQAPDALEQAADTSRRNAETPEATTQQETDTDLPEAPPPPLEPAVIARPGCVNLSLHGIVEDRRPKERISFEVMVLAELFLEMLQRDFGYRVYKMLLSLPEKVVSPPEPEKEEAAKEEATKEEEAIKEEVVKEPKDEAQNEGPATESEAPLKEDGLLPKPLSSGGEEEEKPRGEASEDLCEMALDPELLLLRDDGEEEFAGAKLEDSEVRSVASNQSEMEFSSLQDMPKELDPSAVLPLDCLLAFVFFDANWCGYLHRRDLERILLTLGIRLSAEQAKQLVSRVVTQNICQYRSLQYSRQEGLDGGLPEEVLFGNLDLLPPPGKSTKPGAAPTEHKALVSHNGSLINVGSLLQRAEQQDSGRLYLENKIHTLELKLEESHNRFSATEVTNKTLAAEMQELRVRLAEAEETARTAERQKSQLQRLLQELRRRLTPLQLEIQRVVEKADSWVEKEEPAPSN
UniProt P54132: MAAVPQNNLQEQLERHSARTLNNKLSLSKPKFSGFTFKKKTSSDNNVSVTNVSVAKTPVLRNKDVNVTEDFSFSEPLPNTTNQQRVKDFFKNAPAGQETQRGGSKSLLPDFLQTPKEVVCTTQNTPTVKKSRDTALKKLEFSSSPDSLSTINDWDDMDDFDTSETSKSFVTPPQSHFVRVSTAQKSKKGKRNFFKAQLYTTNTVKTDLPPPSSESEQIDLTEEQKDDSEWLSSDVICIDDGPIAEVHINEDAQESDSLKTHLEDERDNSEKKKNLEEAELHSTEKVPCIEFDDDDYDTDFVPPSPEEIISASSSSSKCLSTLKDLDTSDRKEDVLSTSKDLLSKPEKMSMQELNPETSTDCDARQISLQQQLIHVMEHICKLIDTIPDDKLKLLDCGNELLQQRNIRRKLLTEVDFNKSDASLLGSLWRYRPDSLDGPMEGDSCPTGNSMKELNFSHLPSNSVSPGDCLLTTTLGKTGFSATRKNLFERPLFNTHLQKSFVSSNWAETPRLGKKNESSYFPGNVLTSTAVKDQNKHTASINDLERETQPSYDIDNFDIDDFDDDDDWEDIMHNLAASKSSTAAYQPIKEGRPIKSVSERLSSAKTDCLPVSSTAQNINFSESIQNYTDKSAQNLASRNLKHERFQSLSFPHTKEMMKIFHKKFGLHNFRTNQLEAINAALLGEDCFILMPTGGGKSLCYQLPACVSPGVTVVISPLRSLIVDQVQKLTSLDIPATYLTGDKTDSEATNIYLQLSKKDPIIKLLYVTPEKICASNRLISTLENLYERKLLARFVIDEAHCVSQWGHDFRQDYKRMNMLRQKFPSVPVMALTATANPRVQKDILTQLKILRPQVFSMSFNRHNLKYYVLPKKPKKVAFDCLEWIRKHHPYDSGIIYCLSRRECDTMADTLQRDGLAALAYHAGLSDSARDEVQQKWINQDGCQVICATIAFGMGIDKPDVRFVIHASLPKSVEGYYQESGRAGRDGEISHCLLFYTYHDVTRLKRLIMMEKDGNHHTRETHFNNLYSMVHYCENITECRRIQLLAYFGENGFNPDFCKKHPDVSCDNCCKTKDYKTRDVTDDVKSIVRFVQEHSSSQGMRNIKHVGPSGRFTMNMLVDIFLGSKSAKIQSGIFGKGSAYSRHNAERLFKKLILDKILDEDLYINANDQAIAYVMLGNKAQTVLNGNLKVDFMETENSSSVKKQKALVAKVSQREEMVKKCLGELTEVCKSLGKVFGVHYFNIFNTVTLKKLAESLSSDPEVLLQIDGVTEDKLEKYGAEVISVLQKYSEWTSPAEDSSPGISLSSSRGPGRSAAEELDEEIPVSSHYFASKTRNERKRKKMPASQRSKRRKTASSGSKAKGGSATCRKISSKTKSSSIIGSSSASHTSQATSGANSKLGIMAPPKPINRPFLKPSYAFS

Target: DBC1 ΔNT (UniProt Q8N163)
Assay: co-IP; co-IP of full-length or truncated DBC1 with BLM from whole cell lysates, Western blot

Substance: BLM (Bloom syndrome protein) (from UniProt P54132 1-1417)
- binding: no binding
